Target: T1, Bovine PAFR (Bos taurus, UniProt Q9TTY5)
T1 construct: expressed in transfected cells; host or cells: BHK cells, transient transfection with lipofectamine, pcDNA3.3-PAFR
Test: PAF-mediated intracellular calcium accumulation in BHK cells transiently expressing bovine PAFR
Type: cell-based
Conditions: 10 nM PAF; antihistamine 1-100 nM; transfected BHK cells

The chains behind the UniProt entries cited, without tags or fusion partners. Where a name states a change or a piece, a line headed by the entry shows the natural chain unless it says otherwise.
UniProt Q9TTY5: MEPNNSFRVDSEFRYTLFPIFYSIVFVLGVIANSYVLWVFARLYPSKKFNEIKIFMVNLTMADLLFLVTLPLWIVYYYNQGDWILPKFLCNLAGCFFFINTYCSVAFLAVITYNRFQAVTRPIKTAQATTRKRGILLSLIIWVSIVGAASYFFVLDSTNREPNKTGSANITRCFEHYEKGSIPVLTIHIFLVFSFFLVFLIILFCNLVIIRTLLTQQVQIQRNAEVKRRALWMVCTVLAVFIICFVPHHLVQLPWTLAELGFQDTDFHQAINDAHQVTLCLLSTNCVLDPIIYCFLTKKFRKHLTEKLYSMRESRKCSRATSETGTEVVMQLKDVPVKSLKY

block of bovine PAFR function by antihistamines, PAF-mediated intracellular calcium accumulation (FIG. 12): do not block
Compound: CN1CCC[C@@H]1CCO[C@](C)(c1ccccc1)c1ccc(Cl)cc1 [clemastine]
